Results: patent US9180212B2, “β-amyloid plaque imaging agents” (The Regents of the University of California, priority 2012, dated 2015)
Some of these results come from one statement about several compounds together. At least one structure is not confirmed: it was looked up by name or label, or the drawing left a doubt.

Experiments:
[1] = system: NET in brown adipose tissue (BAT); experiment: Rat PET/CT NET imaging in brown adipose tissue; type: in vivo, Sprague-Dawley rats; details: iv, PET/CT 90 mins
Text: In still further experiments, binding/uptake of contemplated compounds to/by NET was investigated in adipose tissue, and especially brown adipose tissue. It should be appreciated that due to the innervation of brown adipose tissue (BAT) with neurotransmitter, norepinephrine is essential for regulation of thermogenesis, and thus has a role in obesity and diabetes. Norepinephrine acts by activating β3-adrenoceptor to increase BAT metabolic activity measurable using ^18F-FDG PET. Norepinephrine transporter (NET) inhibitors such as atomoxetine play an important role in BAT activity by increasing norepinephrine levels.
Male Sprague-Dawley rats were fasted for 24 hrs prior to ^18F-FDG administration. Rats were administered i.v. ˜0.3 mCi ^18F-FDG under 2% isoflurane anesthesia. The same rats were treated with atomoxetine 1 mg/kg, 30 mins before ^18F-FDG administration. Rats were awake for 60 mins and subsequently anesthetized for upper-body Inveon MicroPET/CT scan. To evaluate whether enhanced ^18F-FDG uptake in activated BAT could be reduced by pharmacologic interventions, propranolol ([…]) 5 mg/kg was given intraperitoneally in anesthetized rats, 30 minutes prior to atomoxetine administration. […] PET/CT data was analysed using IRW and PMOD.

[2] = system: norepinephrine transporters (NET); experiment: Rat brain PET with atomoxetine pre-injection (NET binding/uptake); type: in vivo, Sprague-Dawley rats; details: IV injection, Inveon PET/CT
Experimental: Based on earlier experimental observations (not shown), the inventors contemplated that the compounds presented herein not only bind with high specificity to β-amyloid, but also with similar high specificity to the NET. To investigate binding to/uptake by the NET, the effect of atomoxetine (ATX, a selective norepinephrine reuptake inhibitor) on the kinetics of Dalene and TAZA was tested. More specifically, Sprague-Dawley rats (308-468 g) received two 90 min PET scans each on two separate days (1-4 weeks apart) with an Inveon scanner. On first day each rat received a baseline scan, one with [^11C]Dalene and the other with [^11C]TAZA (96±8 MBq). The second day each animal was pre-injected i.v. with a 50 μl bolus of ATX (1-2 mg/Kg), 17 min before [^11C]Dalene and 2 min before [^11C]TAZA (33±7 MBq). The images were reconstructed dynamically in 25 frames (4×0.5 min, 8×1 min, 5×2 min, 2×5 min, 6×10 min). Each subject received a CT scan that was used for attenuation and scatter correction. […] Time activity curves (TACs) from all regions were analyzed in PMOD using Logan non-invasive method with Cg1's k2′ parameter estimated by fitting of brainstem data to MRTM.
Slices were then washed and exposed on to phosphor screens and slides were analysed by Optiquant image analysis program for SP binding Digital light units/mm^2 (DLU/mm^2). […] PET images were analyzed using PMOD. […]

Question: What does the source list for `CN(C)c1ccc(N=Nc2ccc(N[11CH3])cc2)cc1` [^11C-TAZA, 4-^11C-methylamino-4′-dimethylamino-azobenzene]?
Answer: IBAT to reference muscle ratios [1]: > 4; Ratios of brain stem to cingulate gyms (used as reference region) [2]: > 2
